This passage reports percent growth results from the supplement of paper PMC6821926, “Diaminoquinazoline MMV675968 from Pathogen Box inhibits Acinetobacter baumannii growth through targeting of dihydrofolate reductase” (Scientific Reports, 2019).

± gives the uncertainty stated by the source. The list shows a part of the results.

In the first assay the test system is Acinetobacter baumannii Mahidol. The assay can be described thus: percent growth relative to DMSO-treated control; higher = less growth inhibition. The following applies: 10 µM; 18 h.
With `CC(C)=CCC/C(C)=C\CNCCNC1C2CC3CC(C2)CC1C3` (stereo not drawn), the percent growth is 64.6 ± 44%.

In turn, `Cc1nn2c(O)c3c(nc2c1-c1ccc(F)cc1)CCCC3` registered a percent growth of 85.1 ± 15%.

For the compound `CNCCC(Oc1ccc(C(F)(F)F)cc1)c1ccccc1` (stereo not drawn), the percent growth was found to be 96.4 ± 4.4%.

On to `COc1ccc(C2(C(=O)Nc3ccc(Br)cc3)CCCC2)cc1`, for which the percent growth turned out to be 92.1 ± 4%.

The compound `O=C(Nc1cccc(Cl)c1)c1cnc(N2CCN(c3ccncc3)CC2)c(Cl)c1` returned a percent growth of 95.2 ± 8.3%.

In the case of `O=C(NCc1ccco1)N1CCN(Cc2ccc(Cl)s2)CC1`, the percent growth was 107 ± 19%.

In turn, `Cc1ccccc1C(=O)N1N=C(Nc2ccccc2)SC1(C)C` had a percent growth of 97.8 ± 12%.

As to `CCc1ccccc1-n1c(C)cn2c3c(=O)n(C(C(=O)OC)C(C)C)c(=O)n(C)c3nc12` (stereo not drawn), the percent growth was determined as 103 ± 4.2%.

Turning to `CC1COC2(CCN(c3nc(=O)c4cc(C(F)(F)F)cc([N+](=O)[O-])c4s3)CC2)O1` (stereo not drawn), the percent growth stood at 88.3 ± 43%.

In turn, `O=C(NC1=NCCS1)c1sc2cc(F)ccc2c1Cl` gave a percent growth of 84.8 ± 32%.

For `CCn1cnc2c(Nc3cc(F)cc(F)c3)nc(C#N)nc21`, the percent growth turned out to be 88 ± 12%.

The compound `COc1cccc2c(C)nc(N=C(N)N)nc12` gave a percent growth of 103 ± 16%.

`CC[C@H](CO)NCCN[C@H](CC)CO` had a percent growth of 81 ± 31%.

In turn, `O=C(Nc1ccccc1)c1ccc(-c2cc3ccncc3cc2OC2CCNCC2)s1` registered a percent growth of 101 ± 9%.

On to `CCN(CC)S(=O)(=O)c1ccc(C(=O)Nc2cc(C)nn2-c2nc(C)c(C)c(=O)[nH]2)cc1`, for which the percent growth is 69.3 ± 41%.

`O=C(Nc1c(O)cccc1-c1nc2c(C(=O)O)cccc2o1)c1cc(-c2ccccc2)on1` returned a percent growth of 101 ± 9.8%.

As to `OC[C@H]1O[C@@H](n2c3ccc(Cl)cc3c3c(-c4cc5ccccc5o4)ncnc32)C(O)[C@H]1O` (stereo partly drawn), the percent growth worked out at 83 ± 10%.

Consider `COC(=O)c1ccc(F)cc1NS(=O)(=O)c1cccc(-c2cnn(Cc3ccccc3)c2)c1`, for which the percent growth was found to be 78.5 ± 16%.

`COc1cc(C(F)(F)F)nc2ccc(C)c(N)c12` registered a percent growth of 101 ± 3.4%.

Compound `O=C(Nc1nnc(S)s1)c1cc(Br)ccc1Cl` yielded a percent growth of 96.9 ± 2.8%.

`C[C@H](C(N)=O)N1CCCC[C@H]1c1ccc(OCc2cccc(F)c2)cc1`: the percent growth came to 87.3 ± 6.7%.

`O=C(N[C@H](Cc1ccccc1)C(=O)Nc1ccccc1N1CCOCC1)c1cccs1` came in with a percent growth of 88.7 ± 10%.

In the case of `COc1cccc(-n2nnnc2S(=O)(=O)Cc2ccccc2)c1`, the percent growth is 77.6 ± 27%.

On to `O=C(Nc1ccc(F)c(-c2nc3cc(-c4ccccc4)cnc3[nH]2)c1)N1CCCC1`, for which the percent growth amounted to 92.2 ± 2.6%.

`COc1ccc(C2=NN(C3CCCCCC3)C(=O)C2(C)C)cc1OCCCCOc1ccc(-c2nn[nH]n2)cc1` returned a percent growth of 95.1 ± 9.8%.

`N#Cc1ccc(-c2ccc(OCC(N)=O)cc2)cc1` yielded a percent growth of 95.1 ± 6.9%.

Take `Cc1cc(NC(=O)c2ccc(Oc3ccc(Cl)cc3O)o2)no1`: the percent growth came out at 83.1 ± 35%.

Regarding `CN1CCN(c2cc(-c3ccc(F)cc3)nc(-c3ccncc3)n2)CC1`, the percent growth came out at 55.3 ± 45%.

`CC(C)N=c1cc2n(-c3ccc(Cl)cc3)c3ccccc3nc-2cc1Nc1ccc(Cl)cc1` came in with a percent growth of 40.5 ± 34%.

`CC1=Nc2ccc(Cl)cc2C(O)(c2ccc(C)cc2)N1CCN1CCCCC1` (stereo not drawn) gave a percent growth of 93.4 ± 7.7%.

In the case of `Cc1cc(Cl)c(S(=O)(=O)N2CCCC2)cc1OCC(=O)NC1CCCCC1`, the percent growth was 92.4 ± 7.5%.

In turn, `COc1ccc(C(=N)N)cc1-c1cn(-c2ccc(C(=N)N)cc2)nn1` displayed a percent growth of 105 ± 12%.

In turn, `Nc1ncnc2c1c(Cc1cccc3ccccc13)nn2CC1CCNCC1` displayed a percent growth of 93.8 ± 5.8%.

`N=C(N)Nc1ccc(-c2ccc(-c3ccc(N=C(N)N)c(Cl)c3)o2)cc1Cl`: the percent growth amounted to 23.4 ± 44%.

In the case of `CC(C)(C)C1CCC(CC2=C(O)C(=O)c3ccccc3C2=O)CC1` (stereo not drawn), the percent growth worked out at 99.4 ± 30%.

As to `NCCCC(N)(C(=O)O)C(F)F` (stereo not drawn), the percent growth was determined as 91.6 ± 39%.

With `c1ccc(Oc2ccc(-c3cc(CN4CCOCC4)[nH]n3)cc2)cc1`, the percent growth was found to be 98.1 ± 7.8%.

Turning to `c1ccc(Oc2ccc(-c3cc(N4CCOCC4)[nH]n3)cc2)cc1`, the percent growth is 90.1 ± 9.1%.

As for `NC(=O)c1cc(-c2ccsc2)ccc1OCCOc1ccccc1`, the percent growth turned out to be 93.6 ± 13%.

The next assay relates to Acinetobacter baumannii Naval-81. The assay is described as above. The following applies: 10 µM; 18 h.
Turning to `CC(C)=CCC/C(C)=C\CNCCNC1C2CC3CC(C2)CC1C3` (stereo not drawn), the percent growth turned out to be 88 ± 17%.

The compound `Cc1nn2c(O)c3c(nc2c1-c1ccc(F)cc1)CCCC3` returned a percent growth of 91.67 ± 0.48%.

For the compound `CNCCC(Oc1ccc(C(F)(F)F)cc1)c1ccccc1` (stereo not drawn), the percent growth was 80.3 ± 20%.

For `COc1ccc(C2(C(=O)Nc3ccc(Br)cc3)CCCC2)cc1`, the percent growth worked out at 73.9 ± 9%.

Take `O=C(Nc1cccc(Cl)c1)c1cnc(N2CCN(c3ccncc3)CC2)c(Cl)c1`: the percent growth is 91.2 ± 6.5%.

As to `O=C(NCc1ccco1)N1CCN(Cc2ccc(Cl)s2)CC1`, the percent growth was 88.3 ± 17%.

Consider `Cc1ccccc1C(=O)N1N=C(Nc2ccccc2)SC1(C)C`, for which the percent growth amounted to 83.9 ± 4%.

`CCc1ccccc1-n1c(C)cn2c3c(=O)n(C(C(=O)OC)C(C)C)c(=O)n(C)c3nc12` (stereo not drawn) gave a percent growth of 93.6 ± 7.2%.

In turn, `CC1COC2(CCN(c3nc(=O)c4cc(C(F)(F)F)cc([N+](=O)[O-])c4s3)CC2)O1` (stereo not drawn) gave a percent growth of 86 ± 24%.

In turn, `O=C(NC1=NCCS1)c1sc2cc(F)ccc2c1Cl` had a percent growth of 92.4 ± 8.3%.

On to `CCn1cnc2c(Nc3cc(F)cc(F)c3)nc(C#N)nc21`, for which the percent growth was 98.9 ± 16%.

As to `COc1cccc2c(C)nc(N=C(N)N)nc12`, the percent growth is 83.8 ± 29%.

In turn, `CC[C@H](CO)NCCN[C@H](CC)CO` displayed a percent growth of 107 ± 45%.

In the case of `O=C(Nc1ccccc1)c1ccc(-c2cc3ccncc3cc2OC2CCNCC2)s1`, the percent growth amounted to 90.6 ± 13%.

The compound `CCN(CC)S(=O)(=O)c1ccc(C(=O)Nc2cc(C)nn2-c2nc(C)c(C)c(=O)[nH]2)cc1` yielded a percent growth of 73.4 ± 24%.

`O=C(Nc1c(O)cccc1-c1nc2c(C(=O)O)cccc2o1)c1cc(-c2ccccc2)on1` had a percent growth of 98 ± 12%.

In the case of `OC[C@H]1O[C@@H](n2c3ccc(Cl)cc3c3c(-c4cc5ccccc5o4)ncnc32)C(O)[C@H]1O` (stereo partly drawn), the percent growth was found to be 101 ± 13%.

For `COC(=O)c1ccc(F)cc1NS(=O)(=O)c1cccc(-c2cnn(Cc3ccccc3)c2)c1`, the percent growth is 88.2 ± 1.9%.

As to `COc1cc(C(F)(F)F)nc2ccc(C)c(N)c12`, the percent growth worked out at 60.8 ± 48%.

Compound `O=C(Nc1nnc(S)s1)c1cc(Br)ccc1Cl` had a percent growth of 92.2 ± 20%.

Regarding `C[C@H](C(N)=O)N1CCCC[C@H]1c1ccc(OCc2cccc(F)c2)cc1`, the percent growth came out at 86.5 ± 6.2%.

With `O=C(N[C@H](Cc1ccccc1)C(=O)Nc1ccccc1N1CCOCC1)c1cccs1`, the percent growth was 96.8 ± 4.2%.

Turning to `COc1cccc(-n2nnnc2S(=O)(=O)Cc2ccccc2)c1`, the percent growth worked out at 88.3 ± 15%.

For the compound `O=C(Nc1ccc(F)c(-c2nc3cc(-c4ccccc4)cnc3[nH]2)c1)N1CCCC1`, the percent growth was 93.4 ± 16%.

`COc1ccc(C2=NN(C3CCCCCC3)C(=O)C2(C)C)cc1OCCCCOc1ccc(-c2nn[nH]n2)cc1` came in with a percent growth of 98.6 ± 26%.

Compound `N#Cc1ccc(-c2ccc(OCC(N)=O)cc2)cc1` had a percent growth of 90.3 ± 16%.

As for `Cc1cc(NC(=O)c2ccc(Oc3ccc(Cl)cc3O)o2)no1`, the percent growth was 37.4 ± 16%.

Compound `CN1CCN(c2cc(-c3ccc(F)cc3)nc(-c3ccncc3)n2)CC1` had a percent growth of 79.1 ± 13%.

On to `CC(C)N=c1cc2n(-c3ccc(Cl)cc3)c3ccccc3nc-2cc1Nc1ccc(Cl)cc1`, for which the percent growth is 118 ± 45%.

In the case of `CC1=Nc2ccc(Cl)cc2C(O)(c2ccc(C)cc2)N1CCN1CCCCC1` (stereo not drawn), the percent growth was 94.8 ± 12%.

Take `Cc1cc(Cl)c(S(=O)(=O)N2CCCC2)cc1OCC(=O)NC1CCCCC1`: the percent growth stood at 89.4 ± 4.8%.

Compound `COc1ccc(C(=N)N)cc1-c1cn(-c2ccc(C(=N)N)cc2)nn1` returned a percent growth of 96.9 ± 14%.

The compound `Nc1ncnc2c1c(Cc1cccc3ccccc13)nn2CC1CCNCC1` registered a percent growth of 97.8 ± 6.6%.

`N=C(N)Nc1ccc(-c2ccc(-c3ccc(N=C(N)N)c(Cl)c3)o2)cc1Cl` yielded a percent growth of 80.3 ± 11%.

`CC(C)(C)C1CCC(CC2=C(O)C(=O)c3ccccc3C2=O)CC1` (stereo not drawn) had a percent growth of 66 ± 18%.

For `NCCCC(N)(C(=O)O)C(F)F` (stereo not drawn), the percent growth was determined as 98.8 ± 32%.

As to `c1ccc(Oc2ccc(-c3cc(CN4CCOCC4)[nH]n3)cc2)cc1`, the percent growth was determined as 92.1 ± 28%.

In turn, `c1ccc(Oc2ccc(-c3cc(N4CCOCC4)[nH]n3)cc2)cc1` showed a percent growth of 86.8 ± 8.8%.

In turn, `NC(=O)c1cc(-c2ccsc2)ccc1OCCOc1ccccc1` gave a percent growth of 96 ± 4.9%.
